According to PubChem BioAssay AID250 (DTP/NCI, 2004):
The list is a part of this screen's results and no random one: it is rich in T/C values a quarter to a half above the control, in often repeated tests (any T/C) and in doses without a T/C. Other doses and runs of a compound stand elsewhere. T/C gives the treated animals as a percentage of the vehicle group. Some doses have a count of surviving animals in place of a T/C: the source holds a T/C of zero for them, seemingly a mark for toxic or unscored doses. For some of these results: Survivors were counted at the toxicity check, usually on the fifth day, unless a day is given; later deaths do not show. Schedule codes are those of the source, taken here to give the interval after Q, in days (D) or hours (H), and the number of doses after X. For survival time, this PubChem deposit counts one and a half times the control or more as active, and values a quarter to a half above the control carry no call in these data; other NCI protocols may use other cut-offs. Some entries hold several experiments; the results are listed from low to high. Some T/C values carry the count of animals alive at the toxicity check (mostly the fifth day); without a count, all were alive then.

Experiments:
[1] = tested on: BDF1 mice, L1210 leukemia sc, survival T/C; experiment: NCI In Vivo Anticancer Drug Screen. Data for tumor model L1210 Leukemia (subcutaneous) in B6D2F1 (BDF1) mice; settings: T/C endpoint: median survival time, vehicle: saline, higher T/C = longer survival
How it was run: (§1)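 Read-out: T/C ratio, i.e. survival or tumor size in treated mice over that in vehicle-treated controls, from mice bearing transplantable tumors.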

[2] = tested on: BDF1 mice, L1210 leukemia sc; experiment: as above; settings: T/C endpoint: median survival time, vehicle: saline, higher T/C = longer survival
How it was run: as §1

[3] = dose: 12.5 mg/kg/injection, schedule: Q04DX003 (sc), evaluated on day 7
[4] = dose: 14.0 mg/kg/injection, schedule: Q04DX003 (sc), evaluated on day 7
[5] = dose: 25.0 mg/kg/injection, schedule: Q04DX003 (sc), evaluated on day 7
[6] = dose: 65.0 mg/kg/injection, schedule: Q04DX003 (sc), evaluated on day 7

Structure (SMILES): CC[C@](O)(C(=O)O)c1cc2n(c(=O)c1CO)Cc1cc3ccccc3nc1-2
- T/C [1, 3]: 163 % of control
- T/C ([1]; dose: 12.5 mg/kg/injection, schedule: Q04DX003 (sc), evaluated on day 28): 161 % of control
- T/C [1, 4]: 118 and 155 % of control
- T/C ([1]; dose: 14.0 mg/kg/injection, schedule: Q04DX003 (sc), evaluated on day 35): 122 and 155 % of control
- T/C ([1]; dose: 23.0 mg/kg/injection, schedule: Q04DX003 (sc), evaluated on day 7): 153, 163, 175 % of control
- T/C ([1]; dose: 23.0 mg/kg/injection, schedule: Q04DX003 (sc), evaluated on day 35): 155 and 166 % of control
- T/C ([1]; dose: 23.0 mg/kg/injection, schedule: Q04DX003 (sc), evaluated on day 50): 172 % of control
- T/C [1, 5]: 187 and 206 % of control
- T/C ([1]; dose: 25.0 mg/kg/injection, schedule: Q04DX003 (sc), evaluated on day 25): 189 % of control
- T/C ([1]; dose: 25.0 mg/kg/injection, schedule: Q04DX003 (sc), evaluated on day 28): 205 % of control
- T/C ([1]; dose: 39.0 mg/kg/injection, schedule: Q04DX003 (sc), evaluated on day 7): 152, 156, 160 % of control
- T/C ([1]; dose: 39.0 mg/kg/injection, schedule: Q04DX003 (sc), evaluated on day 35): 155 and 166 % of control
- T/C ([1]; dose: 39.0 mg/kg/injection, schedule: Q04DX003 (sc), evaluated on day 50): 155 % of control
- T/C ([1]; dose: 40.0 mg/kg/injection, schedule: Q07DX003 (sc), evaluated on day 7): 115 and 171 % of control
- T/C ([1]; dose: 40.0 mg/kg/injection, schedule: Q07DX003 (sc), evaluated on day 30): 110 % of control
- T/C ([1]; dose: 40.0 mg/kg/injection, schedule: Q07DX003 (sc), evaluated on day 45): 170 % of control
- T/C ([1]; dose: 50.0 mg/kg/injection, schedule: Q04DX003 (sc), evaluated on day 7): 166, 170, 207 % of control
- T/C ([1]; dose: 50.0 mg/kg/injection, schedule: Q04DX003 (sc), evaluated on day 9): 118 % of control
- T/C ([1]; dose: 50.0 mg/kg/injection, schedule: Q04DX003 (sc), evaluated on day 24): 170 % of control
- T/C ([1]; dose: 50.0 mg/kg/injection, schedule: Q04DX003 (sc), evaluated on day 25): 163 % of control
- T/C ([1]; dose: 50.0 mg/kg/injection, schedule: Q04DX003 (sc), evaluated on day 28): 205 % of control
- T/C ([1]; dose: 50.0 mg/kg/injection, schedule: Q04DX003 (sc), evaluated on day 66): 120 % of control
- T/C ([1]; dose: 50.0 mg/kg/injection, schedule: Q07DX003 (sc), evaluated on day 7): 117 and 185 % of control
- T/C ([1]; dose: 50.0 mg/kg/injection, schedule: Q07DX003 (sc), evaluated on day 9): 121 % of control
- T/C ([1]; dose: 50.0 mg/kg/injection, schedule: Q07DX003 (sc), evaluated on day 25): 115 % of control
- T/C ([1]; dose: 50.0 mg/kg/injection, schedule: Q07DX003 (sc), evaluated on day 45): 175 % of control
- T/C ([1]; dose: 50.0 mg/kg/injection, schedule: Q07DX003 (sc), evaluated on day 66): 120 % of control
- T/C [1, 6]: 152 and 178 % of control
- T/C ([1]; dose: 65.0 mg/kg/injection, schedule: Q04DX003 (sc), evaluated on day 35): 155 and 177 % of control
- T/C ([1]; dose: 200.0 mg/kg/injection, schedule: Q07DX003 (sc), evaluated on day 7): 93 and 122 % of control
- T/C ([1]; dose: 200.0 mg/kg/injection, schedule: Q07DX003 (sc), evaluated on day 25): 94 % of control
- T/C ([1]; dose: 200.0 mg/kg/injection, schedule: Q07DX003 (sc), evaluated on day 28): 111 % of control
- survivor count ([1]; dose: 320.0 mg/kg/injection, schedule: Q07DX003 (sc)): 5 of 8
- T/C ([1]; dose: 400.0 mg/kg/injection, schedule: Q07DX003 (sc), evaluated on day 7): 96 and 101 % of control
- T/C ([1]; dose: 400.0 mg/kg/injection, schedule: Q07DX003 (sc), evaluated on day 25): 94 % of control [6 of 8 alive]
- T/C ([1]; dose: 400.0 mg/kg/injection, schedule: Q07DX003 (sc), evaluated on day 28): 100 % of control
- T/C ([2]; dose: 4.0 mg/kg/injection, schedule: Q01DX009 (ip)): 135 % of control
- T/C ([2]; dose: 4.0 mg/kg/injection, schedule: Q01DX009 (sc)): 126 % of control
- T/C ([2]; dose: 10.0 mg/kg/injection, schedule: Q04DX003 (sc), evaluated on day 7): 145 % of control
- T/C ([2]; dose: 10.0 mg/kg/injection, schedule: Q04DX003 (sc), evaluated on day 30): 140 % of control
- T/C ([2]; dose: 12.5 mg/kg/injection, schedule: Q02DX005 (sc)): 145 % of control
- T/C [2, 3]: 140 and 142 % of control
- T/C ([2]; dose: 12.5 mg/kg/injection, schedule: Q04DX003 (sc), evaluated on day 24): 140 % of control
- T/C ([2]; dose: 12.5 mg/kg/injection, schedule: Q04DX003 (sc), evaluated on day 25): 142 % of control
- T/C [2, 4]: 148 % of control
- T/C ([2]; dose: 14.0 mg/kg/injection, schedule: Q04DX003 (sc), evaluated on day 50): 144 % of control
- T/C ([2]; dose: 20.0 mg/kg/injection, schedule: Q04DX003 (sc), evaluated on day 7): 142 % of control
- T/C ([2]; dose: 20.0 mg/kg/injection, schedule: Q04DX003 (sc), evaluated on day 30): 135 % of control
- T/C [2, 5]: 141 % of control
- T/C ([2]; dose: 25.0 mg/kg/injection, schedule: Q04DX003 (sc), evaluated on day 24): 140 % of control
- T/C ([2]; dose: 50.0 mg/kg/injection, schedule: Q02DX005 (sc), evaluated on day 7): 127 % of control
- T/C ([2]; dose: 50.0 mg/kg/injection, schedule: Q02DX005 (sc), evaluated on day 24): 125 % of control
- T/C [2, 6]: 142 % of control
- T/C ([2]; dose: 65.0 mg/kg/injection, schedule: Q04DX003 (sc), evaluated on day 50): 133 % of control
- T/C ([2]; dose: 65.0 mg/kg/injection, schedule: Q09DX003 (sc)): 125 % of control
- T/C ([2]; dose: 83.3 mg/kg/injection, schedule: Q04DX003 (sc), evaluated on day 9): 131 % of control
- T/C ([2]; dose: 83.3 mg/kg/injection, schedule: Q04DX003 (sc), evaluated on day 66): 130 % of control
- T/C ([2]; dose: 83.3 mg/kg/injection, schedule: Q07DX003 (sc), evaluated on day 9): 127 % of control
- T/C ([2]; dose: 83.3 mg/kg/injection, schedule: Q07DX003 (sc), evaluated on day 66): 130 % of control
- T/C ([2]; dose: 100.0 mg/kg/injection, schedule: Q04DX003 (sc), evaluated on day 7): 128, 133, 145 % of control
- T/C ([2]; dose: 100.0 mg/kg/injection, schedule: Q04DX003 (sc), evaluated on day 24): 130 % of control
- T/C ([2]; dose: 100.0 mg/kg/injection, schedule: Q04DX003 (sc), evaluated on day 25): 142 % of control
- T/C ([2]; dose: 100.0 mg/kg/injection, schedule: Q04DX003 (sc), evaluated on day 28): 127 % of control
- T/C ([2]; dose: 100.0 mg/kg/injection, schedule: Q07DX003 (sc), evaluated on day 7): 125 and 132 % of control
- T/C ([2]; dose: 100.0 mg/kg/injection, schedule: Q07DX003 (sc), evaluated on day 25): 126 % of control
- T/C ([2]; dose: 100.0 mg/kg/injection, schedule: Q07DX003 (sc), evaluated on day 28): 144 % of control
- T/C ([2]; dose: 108.0 mg/kg/injection, schedule: Q04DX003 (sc), evaluated on day 7): 138, 139, 146 % of control
- T/C ([2]; dose: 108.0 mg/kg/injection, schedule: Q04DX003 (sc), evaluated on day 35): 133 and 138 % of control
- T/C ([2]; dose: 108.0 mg/kg/injection, schedule: Q04DX003 (sc), evaluated on day 50): 138 % of control
- T/C ([2]; dose: 108.0 mg/kg/injection, schedule: Q09DX003 (sc)): 126 % of control
- T/C ([2]; dose: 191.0 mg/kg/injection, schedule: Q07DX003 (sc)): 148 % of control
- T/C ([2]; dose: 299.0 mg/kg/injection, schedule: Q07DX003 (sc), evaluated on day 7): 136 % of control
- T/C ([2]; dose: 299.0 mg/kg/injection, schedule: Q07DX003 (sc), evaluated on day 45): 130 % of control
